Assay results from the supplement of paper PMC6411743.
± gives the standard deviation of the averaged measurements. This is a selection; strong and weak results do not stand in their true shares. Most entries show no effect beyond the scatter of the controls.

Sequences of proteins named here, by UniProt entry; tags and fusion partners are left off. A change or cut given only in a name is not applied to a line headed by its entry.
UniProt O43169: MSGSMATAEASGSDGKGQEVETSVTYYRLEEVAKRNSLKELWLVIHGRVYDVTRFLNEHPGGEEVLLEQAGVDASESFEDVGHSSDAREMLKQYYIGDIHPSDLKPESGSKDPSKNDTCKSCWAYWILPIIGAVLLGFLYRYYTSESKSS
UniProt Q8IVV7: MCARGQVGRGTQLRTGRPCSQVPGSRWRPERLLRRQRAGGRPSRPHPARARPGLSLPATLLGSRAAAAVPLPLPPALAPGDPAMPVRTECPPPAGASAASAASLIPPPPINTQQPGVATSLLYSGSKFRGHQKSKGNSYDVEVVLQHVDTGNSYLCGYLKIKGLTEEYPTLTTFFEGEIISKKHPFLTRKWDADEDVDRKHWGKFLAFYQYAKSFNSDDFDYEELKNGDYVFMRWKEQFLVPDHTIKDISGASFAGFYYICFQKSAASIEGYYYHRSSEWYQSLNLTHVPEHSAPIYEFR
UniProt Q9NWH9: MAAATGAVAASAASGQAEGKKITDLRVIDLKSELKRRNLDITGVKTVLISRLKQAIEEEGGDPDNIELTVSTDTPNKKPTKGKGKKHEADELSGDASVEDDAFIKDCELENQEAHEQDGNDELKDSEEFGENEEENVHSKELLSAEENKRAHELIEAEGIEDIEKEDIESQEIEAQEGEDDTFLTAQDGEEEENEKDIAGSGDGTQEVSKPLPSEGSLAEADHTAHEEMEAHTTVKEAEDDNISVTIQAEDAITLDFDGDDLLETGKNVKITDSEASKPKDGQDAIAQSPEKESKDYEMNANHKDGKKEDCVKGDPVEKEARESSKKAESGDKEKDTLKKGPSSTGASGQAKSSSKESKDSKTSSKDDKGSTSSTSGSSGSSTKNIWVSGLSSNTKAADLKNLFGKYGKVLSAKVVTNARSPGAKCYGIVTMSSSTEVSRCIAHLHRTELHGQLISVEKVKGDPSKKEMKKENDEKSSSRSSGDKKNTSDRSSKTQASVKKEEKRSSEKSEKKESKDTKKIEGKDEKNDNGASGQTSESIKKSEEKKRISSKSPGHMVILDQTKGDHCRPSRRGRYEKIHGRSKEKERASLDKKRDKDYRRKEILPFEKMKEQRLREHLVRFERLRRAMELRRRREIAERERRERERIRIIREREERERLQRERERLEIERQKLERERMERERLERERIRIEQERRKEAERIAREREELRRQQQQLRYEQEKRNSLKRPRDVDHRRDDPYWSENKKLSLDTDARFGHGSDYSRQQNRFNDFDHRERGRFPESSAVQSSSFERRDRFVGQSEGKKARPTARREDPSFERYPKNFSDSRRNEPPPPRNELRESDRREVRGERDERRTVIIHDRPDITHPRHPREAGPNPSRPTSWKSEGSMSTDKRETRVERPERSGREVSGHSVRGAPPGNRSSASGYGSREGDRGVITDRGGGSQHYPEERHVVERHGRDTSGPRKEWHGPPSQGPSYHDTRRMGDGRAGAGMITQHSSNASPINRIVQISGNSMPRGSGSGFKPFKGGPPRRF
UniProt Q96FV2: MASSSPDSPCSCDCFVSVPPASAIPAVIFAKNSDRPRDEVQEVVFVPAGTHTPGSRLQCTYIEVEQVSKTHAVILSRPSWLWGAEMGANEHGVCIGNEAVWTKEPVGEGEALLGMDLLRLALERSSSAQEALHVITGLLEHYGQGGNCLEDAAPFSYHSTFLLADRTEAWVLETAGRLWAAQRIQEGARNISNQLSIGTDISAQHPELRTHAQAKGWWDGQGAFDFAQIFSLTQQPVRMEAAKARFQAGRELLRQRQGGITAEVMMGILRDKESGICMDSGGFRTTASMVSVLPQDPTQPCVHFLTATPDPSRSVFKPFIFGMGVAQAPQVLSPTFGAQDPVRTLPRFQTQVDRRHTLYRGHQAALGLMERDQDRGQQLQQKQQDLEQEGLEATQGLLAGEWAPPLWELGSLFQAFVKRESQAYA
UniProt Q5TC12: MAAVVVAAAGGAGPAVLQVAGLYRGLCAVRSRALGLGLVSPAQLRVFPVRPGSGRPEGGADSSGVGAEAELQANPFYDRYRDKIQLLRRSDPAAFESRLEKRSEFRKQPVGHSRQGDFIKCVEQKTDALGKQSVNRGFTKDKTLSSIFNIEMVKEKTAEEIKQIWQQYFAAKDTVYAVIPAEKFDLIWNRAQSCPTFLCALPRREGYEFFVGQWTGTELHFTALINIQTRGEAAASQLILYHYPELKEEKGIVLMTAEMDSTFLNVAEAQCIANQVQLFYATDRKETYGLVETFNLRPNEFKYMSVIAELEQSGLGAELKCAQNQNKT
UniProt Q8WV92, whole entry: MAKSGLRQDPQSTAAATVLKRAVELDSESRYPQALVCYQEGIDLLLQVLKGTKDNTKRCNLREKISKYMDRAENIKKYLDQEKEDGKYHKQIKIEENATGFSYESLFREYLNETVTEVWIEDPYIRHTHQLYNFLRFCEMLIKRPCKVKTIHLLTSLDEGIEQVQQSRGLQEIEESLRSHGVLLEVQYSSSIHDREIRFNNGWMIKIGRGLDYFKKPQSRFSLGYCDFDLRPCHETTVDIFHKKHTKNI
UniProt Q9Y4D8: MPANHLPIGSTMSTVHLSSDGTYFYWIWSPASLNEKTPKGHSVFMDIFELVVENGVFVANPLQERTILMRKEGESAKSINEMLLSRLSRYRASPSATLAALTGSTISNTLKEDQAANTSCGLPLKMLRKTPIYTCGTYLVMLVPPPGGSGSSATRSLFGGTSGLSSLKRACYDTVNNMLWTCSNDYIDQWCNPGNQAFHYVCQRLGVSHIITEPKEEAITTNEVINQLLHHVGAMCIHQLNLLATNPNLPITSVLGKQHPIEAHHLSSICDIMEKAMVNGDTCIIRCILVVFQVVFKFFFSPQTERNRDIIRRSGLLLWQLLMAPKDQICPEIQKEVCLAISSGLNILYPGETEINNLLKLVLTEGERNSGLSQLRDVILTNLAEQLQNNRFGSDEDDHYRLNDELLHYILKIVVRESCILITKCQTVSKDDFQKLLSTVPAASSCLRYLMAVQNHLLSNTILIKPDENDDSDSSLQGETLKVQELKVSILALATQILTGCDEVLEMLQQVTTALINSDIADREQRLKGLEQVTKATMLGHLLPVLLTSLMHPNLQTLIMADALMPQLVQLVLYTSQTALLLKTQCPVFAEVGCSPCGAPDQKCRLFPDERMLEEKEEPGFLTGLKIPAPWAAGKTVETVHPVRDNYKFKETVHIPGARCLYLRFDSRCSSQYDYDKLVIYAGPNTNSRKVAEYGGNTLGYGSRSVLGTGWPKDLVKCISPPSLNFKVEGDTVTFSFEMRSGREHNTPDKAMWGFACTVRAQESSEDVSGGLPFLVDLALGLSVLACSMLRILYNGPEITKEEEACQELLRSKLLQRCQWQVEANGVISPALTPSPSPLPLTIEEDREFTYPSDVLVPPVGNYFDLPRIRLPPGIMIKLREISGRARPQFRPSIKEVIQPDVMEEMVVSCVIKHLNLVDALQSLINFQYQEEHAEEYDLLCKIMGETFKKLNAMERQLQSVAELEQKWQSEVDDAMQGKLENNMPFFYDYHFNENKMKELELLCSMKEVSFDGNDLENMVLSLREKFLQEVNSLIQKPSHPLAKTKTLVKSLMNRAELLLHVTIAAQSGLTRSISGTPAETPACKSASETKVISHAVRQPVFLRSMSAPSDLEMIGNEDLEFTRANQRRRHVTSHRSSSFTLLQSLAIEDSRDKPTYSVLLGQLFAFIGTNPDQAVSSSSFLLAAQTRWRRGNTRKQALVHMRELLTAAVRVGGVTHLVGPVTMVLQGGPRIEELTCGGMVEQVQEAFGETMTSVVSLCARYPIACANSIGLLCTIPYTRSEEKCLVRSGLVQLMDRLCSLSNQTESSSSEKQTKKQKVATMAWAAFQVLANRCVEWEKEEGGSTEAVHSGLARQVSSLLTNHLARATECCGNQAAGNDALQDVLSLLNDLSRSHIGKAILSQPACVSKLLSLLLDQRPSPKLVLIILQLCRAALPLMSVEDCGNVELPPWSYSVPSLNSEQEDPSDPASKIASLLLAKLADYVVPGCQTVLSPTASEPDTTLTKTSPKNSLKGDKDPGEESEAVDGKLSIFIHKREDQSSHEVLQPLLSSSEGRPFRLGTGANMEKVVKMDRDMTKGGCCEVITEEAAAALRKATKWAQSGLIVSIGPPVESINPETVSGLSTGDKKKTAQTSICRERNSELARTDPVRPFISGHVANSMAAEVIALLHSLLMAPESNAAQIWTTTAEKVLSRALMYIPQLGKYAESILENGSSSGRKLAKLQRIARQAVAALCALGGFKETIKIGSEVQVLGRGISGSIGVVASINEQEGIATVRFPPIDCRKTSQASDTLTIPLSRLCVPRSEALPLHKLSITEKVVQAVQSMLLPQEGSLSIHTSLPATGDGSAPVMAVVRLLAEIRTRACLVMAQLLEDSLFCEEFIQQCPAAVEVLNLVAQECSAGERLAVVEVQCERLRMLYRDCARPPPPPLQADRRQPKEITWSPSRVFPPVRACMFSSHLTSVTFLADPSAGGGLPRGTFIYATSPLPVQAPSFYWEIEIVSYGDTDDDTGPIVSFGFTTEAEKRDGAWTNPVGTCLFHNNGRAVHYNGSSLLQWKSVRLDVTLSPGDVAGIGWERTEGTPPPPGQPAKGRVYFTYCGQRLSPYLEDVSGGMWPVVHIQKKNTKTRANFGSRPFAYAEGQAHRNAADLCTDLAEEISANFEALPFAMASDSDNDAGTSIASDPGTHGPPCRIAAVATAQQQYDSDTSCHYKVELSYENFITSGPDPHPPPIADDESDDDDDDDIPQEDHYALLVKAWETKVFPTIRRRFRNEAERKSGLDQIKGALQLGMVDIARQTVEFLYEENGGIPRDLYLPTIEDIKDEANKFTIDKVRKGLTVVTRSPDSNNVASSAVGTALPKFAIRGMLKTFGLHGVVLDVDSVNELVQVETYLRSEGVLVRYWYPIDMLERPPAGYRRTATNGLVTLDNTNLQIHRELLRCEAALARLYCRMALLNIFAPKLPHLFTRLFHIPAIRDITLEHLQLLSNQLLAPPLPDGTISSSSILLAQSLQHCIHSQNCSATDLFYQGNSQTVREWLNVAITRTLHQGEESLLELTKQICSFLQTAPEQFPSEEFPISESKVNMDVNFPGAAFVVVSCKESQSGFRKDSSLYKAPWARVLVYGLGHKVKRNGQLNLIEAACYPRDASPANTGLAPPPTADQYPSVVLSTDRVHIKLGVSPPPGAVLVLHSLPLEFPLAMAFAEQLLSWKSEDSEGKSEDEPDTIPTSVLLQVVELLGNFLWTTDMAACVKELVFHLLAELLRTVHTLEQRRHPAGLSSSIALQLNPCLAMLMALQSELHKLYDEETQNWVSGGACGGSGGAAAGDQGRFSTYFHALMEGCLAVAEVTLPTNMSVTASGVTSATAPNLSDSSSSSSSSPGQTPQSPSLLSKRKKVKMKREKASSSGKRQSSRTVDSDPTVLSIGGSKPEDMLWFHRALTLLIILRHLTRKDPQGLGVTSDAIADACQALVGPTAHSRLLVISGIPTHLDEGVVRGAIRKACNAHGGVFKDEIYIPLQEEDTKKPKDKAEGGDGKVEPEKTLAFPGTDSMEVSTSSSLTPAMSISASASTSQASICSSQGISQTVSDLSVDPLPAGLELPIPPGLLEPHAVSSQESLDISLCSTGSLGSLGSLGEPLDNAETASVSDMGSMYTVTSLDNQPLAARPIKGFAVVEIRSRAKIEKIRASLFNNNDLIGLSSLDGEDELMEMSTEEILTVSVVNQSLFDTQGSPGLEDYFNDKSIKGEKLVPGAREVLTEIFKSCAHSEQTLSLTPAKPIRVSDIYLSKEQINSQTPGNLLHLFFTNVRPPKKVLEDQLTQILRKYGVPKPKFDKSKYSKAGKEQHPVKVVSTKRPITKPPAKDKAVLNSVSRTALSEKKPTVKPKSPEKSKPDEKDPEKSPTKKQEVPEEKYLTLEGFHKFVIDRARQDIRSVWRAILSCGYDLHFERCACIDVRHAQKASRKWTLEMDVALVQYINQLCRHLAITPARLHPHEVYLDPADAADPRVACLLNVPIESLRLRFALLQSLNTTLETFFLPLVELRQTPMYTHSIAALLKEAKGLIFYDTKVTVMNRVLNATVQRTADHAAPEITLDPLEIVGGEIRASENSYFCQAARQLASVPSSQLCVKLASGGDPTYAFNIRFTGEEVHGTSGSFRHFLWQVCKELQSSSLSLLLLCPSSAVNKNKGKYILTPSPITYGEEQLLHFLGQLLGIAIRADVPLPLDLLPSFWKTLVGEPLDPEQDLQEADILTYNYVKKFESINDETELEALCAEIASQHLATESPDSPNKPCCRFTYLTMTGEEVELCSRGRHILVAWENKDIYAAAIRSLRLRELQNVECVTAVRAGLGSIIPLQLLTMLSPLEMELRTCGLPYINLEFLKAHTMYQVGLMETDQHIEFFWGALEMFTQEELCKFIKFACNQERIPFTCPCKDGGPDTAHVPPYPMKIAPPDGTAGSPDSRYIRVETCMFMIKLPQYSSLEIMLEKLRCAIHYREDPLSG

Compound: Nc1ncnc2c1ncn2[C@@H]1O[C@H](COP(=O)(O)OP(=O)(O)OP(=O)(O)O)[C@@H](O)[C@H]1O [adenosine triphosphate]
Assay: NP40-soluble protein abundance relative to vehicle (solubility fold change) (ratio); higher = more soluble protein in presence of ATP
How it was run: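 Jurkat crude lysate prepared with a Dounce homogeniser was treated at eight concentrations spanning 0.1 to 10 mM, 10 min at room temperature then 3 min at 37 °C. Solubilisation with 0.8% NP40 and benzonase and ultracentrifugation preceded TMT labelling of the supernatant for LC-MS/MS. Fold change against the detergent-processed vehicle was determined per replicate from vsn-normalised intensities, across three independent experiments.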

| Target | NP40-soluble protein abundance (concentration: 0.1mM) | NP40-soluble protein abundance (concentration: 0.5mM) | NP40-soluble protein abundance (concentration: 1mM) | NP40-soluble protein abundance (concentration: 2mM) | NP40-soluble protein abundance (concentration: 4mM) | NP40-soluble protein abundance (concentration: 6mM) | NP40-soluble protein abundance (concentration: 8mM) | NP40-soluble protein abundance (concentration: 10mM) |
| --- | --- | --- | --- | --- | --- | --- | --- | --- |
| J3KQ34 and related entries (UniProt Q9H9Q2) | 0.884 ± 0.13 | 0.854 ± 0.11 | 0.89 ± 0.097 | 0.87 ± 0.04 | 0.855 ± 0.072 | 0.873 ± 0.093 | 0.878 ± 0.032 | 0.77 ± 0.1 |
| H3BPD5 and related entries (UniProt P78549) | 0.979 ± 0.11 | 1.01 ± 0.08 | 1.12 ± 0.16 | 1.2 ± 0.029 | 1.3 ± 0.1 | 1.51 ± 0.2 | 1.72 ± 0.19 | 1.89 ± 0.12 |
| K7ENL9 and related entries (UniProt Q96DM3) | 1.06 ± 0.053 | 1.06 ± 0.058 | 1.04 ± 0.097 | 0.984 ± 0.027 | 1.02 ± 0.029 | 1.02 ± 0.058 | 1.02 ± 0.061 | 0.985 ± 0.03 |
| H3BUX2 and related entries (UniProt O43169) | 0.848 ± 0.094 | 0.797 ± 0.17 | 0.964 ± 0.19 | 0.854 ± 0.08 | 0.877 ± 0.06 | 0.865 ± 0.077 | 0.815 ± 0.059 | 0.781 ± 0.084 |
| K7ES61 and related entries (UniProt Q9BYD3) | 0.962 ± 0.084 | 0.981 ± 0.12 | 1.02 ± 0.079 | 0.942 ± 0.099 | 0.907 ± 0.091 | 0.827 ± 0.14 | 0.892 ± 0.19 | 0.895 ± 0.17 |
| I3L1H5 and related entries (UniProt Q9BZG8) | 0.949 ± 0.13 | 0.966 ± 0.12 | 0.984 ± 0.17 | 1.03 ± 0.12 | 0.987 ± 0.16 | 0.898 ± 0.12 | 0.987 ± 0.16 | 0.917 ± 0.13 |
| K7ELH7 and related entries (UniProt Q8IVV7) | 1.045 ± 0.0085 | 1.05 ± 0.052 | 1.04 ± 0.13 | 0.979 ± 0.11 | 1 ± 0.032 | 0.867 ± 0.075 | 0.931 ± 0.094 | 0.92918 ± 9.2e-06 |
| G5E9W3 and related entries (UniProt Q9UKF6) | 1.02 ± 0.058 | 1.08 ± 0.052 | 1.09 ± 0.073 | 1.1 ± 0.029 | 1.14 ± 0.025 | 1.11 ± 0.048 | 1.14 ± 0.029 | 1.18 ± 0.052 |
| H0YLE6 and related entries (UniProt Q9NWH9) | 1.01 ± 0.026 | 1 ± 0.05 | 0.961 ± 0.054 | 0.988 ± 0.027 | 0.993 ± 0.038 | 1.11 ± 0.059 | 1.08 ± 0.032 | 1.13 ± 0.033 |
| K7EIY6 and related entries (UniProt Q9BV68) | 0.927 ± 0.13 | 0.896 ± 0.096 | 1 ± 0.15 | 0.967 ± 0.095 | 0.991 ± 0.11 | 1 ± 0.1 | 0.969 ± 0.034 | 0.92 ± 0.11 |
| I3L2M1 and related entries (UniProt Q8WYJ6) | 1 ± 0.035 | 0.989 ± 0.017 | 0.941 ± 0.031 | 0.945 ± 0.017 | 0.948 ± 0.022 | 0.928 ± 0.033 | 0.932 ± 0.04 | 0.941 ± 0.033 |
| I3L0H8 and related entries (UniProt Q9NUU7) | 1.03 ± 0.041 | 1.07 ± 0.045 | 1.03 ± 0.02 | 1.03 ± 0.028 | 1 ± 0.03 | 1.02 ± 0.058 | 1.02 ± 0.012 | 1.02 ± 0.013 |
| J3QL71 and related entries (UniProt Q96FV2) | 1.02 ± 0.032 | 0.9969 ± 0.0083 | 0.96 ± 0.029 | 0.97 ± 0.011 | 0.98 ± 0.025 | 0.944 ± 0.019 | 0.959 ± 0.032 | 0.984 ± 0.015 |
| I3L448 and related entries (UniProt Q5TC12) | 1.01 ± 0.05 | 0.989 ± 0.032 | 0.982 ± 0.049 | 0.985 ± 0.028 | 0.983 ± 0.046 | 0.998 ± 0.04 | 0.96 ± 0.04 | 0.952 ± 0.022 |
| J3KP06 and related entries (UniProt Q8WWI1) | 0.96 ± 0.033 | 1.19 ± 0.034 | 1.31 ± 0.026 | 1.41 ± 0.07 | 1.57 ± 0.067 | 1.65 ± 0.07 | 1.77 ± 0.057 | 1.96 ± 0.042 |
| H0YNP8 and related entries (UniProt Q99081) | 0.983 ± 0.022 | 0.978 ± 0.012 | 0.923 ± 0.056 | 0.935 ± 0.039 | 0.915 ± 0.041 | 0.938 ± 0.027 | 0.916 ± 0.018 | 0.921 ± 0.046 |
| H7C3Q6 and related entries (UniProt Q8WV92) | 1.25 ± 0.057 | 1.6 ± 0.46 | 1.85 ± 0.55 | 1.9 ± 0.66 | 1.92 ± 0.67 | 1.9 ± 0.76 | 1.97 ± 0.67 | 1.94 ± 0.67 |
| H3BSH7 and related entries (UniProt Q969X6) | 1.16 ± 0.12 | 1.12 ± 0.2 | 1.1 ± 0.14 | 1.21 ± 0.03 | 1.26 ± 0.058 | 1.425 ± 0.0083 | 1.46 ± 0.084 | 1.78 ± 0.047 |
| G8JLQ3 and related entries (UniProt P78537) | 0.863 ± 0.2 | 0.829 ± 0.18 | 0.965 ± 0.12 | 0.88 ± 0.076 | 0.834 ± 0.1 | 0.861 ± 0.12 | 0.816 ± 0.032 | 0.702 ± 0.15 |
| I3L0L6 and related entries (UniProt Q9H6Y7) | 0.905 ± 0.026 | 0.911 ± 0.09 | 0.901 ± 0.033 | 0.93 ± 0.016 | 0.896 ± 0.051 | 0.962 ± 0.064 | 0.921 ± 0.066 | 0.864 ± 0.065 |
| H7C0H2 and related entries (UniProt Q96EV2) | 1 ± 0.028 | 0.968 ± 0.026 | 0.963 ± 0.093 | 0.942 ± 0.056 | 0.956 ± 0.086 | 0.982 ± 0.075 | 0.958 ± 0.067 | 0.951 ± 0.059 |
| J3KPF0 (UniProt Q9Y4D8) | 1.03 ± 0.045 | 1.04 ± 0.066 | 1.08 ± 0.036 | 1.04 ± 0.068 | 1.05 ± 0.025 | 1.01 ± 0.1 | 1.02 ± 0.08 | 1 ± 0.044 |
